Reference: the supplement of paper PMC8728848
The list shows a part of the results.

What was measured:
Test in all cases: glycan array binding signal (z-score within array); higher = stronger binding
Details in all cases: glycan notation: IUPAC condensed, linker removed
[1] = target: Gal(b1-4)GlcNAc(b1-3)Gal(b1-4)GlcNAc(b1-3)Gal(b1-4)GlcNAc(b1-3)Gal(b1-4)GlcNAc(b1-2)Man(a1-3)[Gal(b1-4)GlcNAc(b1-3)Gal(b1-4)GlcNAc(b1-3)Gal(b1-4)GlcNAc(b1-3)Gal(b1-4)GlcNAc(b1-2)Man(a1-6)]Man(b1-4)GlcNAc(b1-4)[Fuc(a1-6)]GlcNAc
Outline: (§1)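 From the Consortium for Functional Glycomics database, 3228 arrays were curated, keeping only those whose protein sequence was available. Binding is given as a within-array Z-score averaged across arrays sharing a protein sequence and across linkers. Negative Z-scores can be read as non-binding.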

[2] = target: Gal(b1-4)GlcNAc(b1-3)Gal(b1-4)GlcNAc(b1-3)Gal(b1-4)GlcNAc(b1-3)Gal(b1-4)GlcNAc(b1-2)[Gal(b1-4)GlcNAc(b1-3)Gal(b1-4)GlcNAc(b1-3)Gal(b1-4)GlcNAc(b1-3)Gal(b1-4)GlcNAc(b1-6)]Man(a1-6)[Gal(b1-4)GlcNAc(b1-3)Gal(b1-4)GlcNAc(b1-3)Gal(b1-4)GlcNAc(b1-3)Gal(b1-4)GlcNAc(b1-2)Man(a1-3)]Man(b1-4)GlcNAc(b1-4)[Fuc(a1-6)]GlcNAc
Outline: as §1

[3] = target: Gal(b1-4)GlcNAc(b1-3)Gal(b1-4)GlcNAc(b1-3)Gal(b1-4)GlcNAc(b1-3)Gal(b1-4)GlcNAc(b1-3)Gal(b1-4)GlcNAc(b1-2)Man(a1-3)[Gal(b1-4)GlcNAc(b1-3)Gal(b1-4)GlcNAc(b1-3)Gal(b1-4)GlcNAc(b1-3)Gal(b1-4)GlcNAc(b1-3)Gal(b1-4)GlcNAc(b1-2)Man(a1-6)]Man(b1-4)GlcNAc(b1-4)GlcNAc
Outline: as §1

[4] = target: Gal(b1-4)GlcNAc(b1-3)Gal(b1-4)GlcNAc(b1-3)Gal(b1-4)GlcNAc(b1-3)Gal(b1-4)GlcNAc(b1-3)Gal(b1-4)GlcNAc(b1-2)Man(a1-3)[Gal(b1-4)GlcNAc(b1-3)Gal(b1-4)GlcNAc(b1-3)Gal(b1-4)GlcNAc(b1-3)Gal(b1-4)GlcNAc(b1-3)Gal(b1-4)GlcNAc(b1-2)Man(a1-6)]Man(b1-4)GlcNAc(b1-4)[Fuc(a1-6)]GlcNAc
Outline: as §1

[5] = target: Gal(b1-4)GlcNAc(b1-3)Gal(b1-4)GlcNAc(b1-3)Gal(b1-4)GlcNAc(b1-3)Gal(b1-4)GlcNAc(b1-3)Gal(b1-4)GlcNAc(b1-2)[Gal(b1-4)GlcNAc(b1-3)Gal(b1-4)GlcNAc(b1-3)Gal(b1-4)GlcNAc(b1-3)Gal(b1-4)GlcNAc(b1-3)Gal(b1-4)GlcNAc(b1-6)]Man(a1-6)[Gal(b1-4)GlcNAc(b1-3)Gal(b1-4)GlcNAc(b1-3)Gal(b1-4)GlcNAc(b1-3)Gal(b1-4)GlcNAc(b1-3)Gal(b1-4)GlcNAc(b1-2)Man(a1-3)]Man(b1-4)GlcNAc(b1-4)[Fuc(a1-6)]GlcNAc
Outline: as §1

[6] = target: Gal(b1-4)GlcNAc(b1-3)Gal(b1-4)GlcNAc(b1-3)Gal(b1-4)GlcNAc(b1-3)Gal(b1-4)GlcNAc(b1-3)Gal(b1-4)GlcNAc(b1-3)Gal(b1-4)GlcNAc(b1-2)Man(a1-3)[Gal(b1-4)GlcNAc(b1-3)Gal(b1-4)GlcNAc(b1-3)Gal(b1-4)GlcNAc(b1-3)Gal(b1-4)GlcNAc(b1-3)Gal(b1-4)GlcNAc(b1-3)Gal(b1-4)GlcNAc(b1-2)Man(a1-6)]Man(b1-4)GlcNAc(b1-4)GlcNAc
Outline: as §1

[7] = target: Gal(b1-4)GlcNAc(b1-3)Gal(b1-4)GlcNAc(b1-3)GalNAc
Outline: as §1

[8] = target: Gal(b1-4)GlcNAc(b1-3)Gal(b1-4)GlcNAc(b1-3)[Gal(b1-4)GlcNAc(b1-3)Gal(b1-4)GlcNAc(b1-6)]GalNAc
Outline: as §1

[9] = target: Gal(b1-4)GlcNAc(b1-3)Gal(b1-4)GlcNAc(b1-6)[Gal(b1-3)]GalNAc
Outline: as §1

[10] = target: Gal(b1-4)GlcNAc(b1-3)Gal(b1-4)[Fuc(a1-3)]GlcNAc(b1-3)Gal(b1-4)[Fuc(a1-3)]GlcNAc
Outline: as §1

[11] = target: Gal(b1-4)GlcNAc(b1-3)GalNAc
Outline: as §1

[12] = target: Gal(b1-4)GlcNAc(b1-3)[Fuc(a1-3)GlcNAc(b1-6)]Gal(b1-4)Glc
Outline: as §1

[13] = target: Gal(b1-4)GlcNAc(b1-3)[Gal(b1-4)GlcNAc(b1-6)]Gal(b1-4)GlcNAc
Outline: as §1

[14] = target: Gal(b1-4)GlcNAc(b1-3)[GlcNAc(b1-6)]Gal(b1-4)GlcNAc
Outline: as §1

[15] = target: Gal(b1-4)GlcNAc(b1-6)Gal(b1-4)GlcNAc
Outline: as §1

[16] = target: Gal(b1-4)GlcNAc(b1-6)GalNAc
Outline: as §1

[17] = target: Gal(b1-4)GlcNAc(b1-6)[Gal(b1-3)]GalNAc
Outline: as §1

[18] = target: Gal(b1-4)GlcNAc(b1-6)[Gal(b1-4)GlcNAc(b1-3)]GalNAc
Outline: as §1

Gal(b1-4)GlcNAc6P = target: Gal(b1-4)GlcNAc6P
Outline: as §1

Gal(b1-6)Gal = target: Gal(b1-6)Gal
Outline: as §1

Gal3S(b1-3)GalNAc = target: Gal3S(b1-3)GalNAc
Outline: as §1

Gal3S(b1-3)GlcNAc = target: Gal3S(b1-3)GlcNAc
Outline: as §1

[19] = target: Gal3S(b1-3)[Fuc(a1-4)]GlcNAc
Outline: as §1

B1: Pwp6 (Candida glabrata) (protein)
chain: MGSSHHHHHHSSGLVPRGSHMASANLPKLTNICQIPDNVKKTSGFKGEIRRIGLFPPGGDYTYLLKFPSTGSTASDTISLTTKPQLSTSGWFPSLFGHTYFIKADLLVYMVAYFVPTETGEYTFKLVNSDDAAVMYVGNPSAFPCGSIDTWPEPRKEDINVCDKISASTKLYMEKGLAYPVRLVWYNGGGDGQFNAQFIDPSGTTHTDWNGYVWQYDACTDCDYK
[1]
  glycan array binding signal (z-score): 3.31
[2]
  glycan array binding signal (z-score): 0.492
[3]
  glycan array binding signal (z-score): 2.07
[4]
  glycan array binding signal (z-score): 1.2
[5]
  glycan array binding signal (z-score): 1.1
[6]
  glycan array binding signal (z-score): 2.71
[7]
  glycan array binding signal (z-score): 1.39
[8]
  glycan array binding signal (z-score): 2.91
[9]
  glycan array binding signal (z-score): 0.411
[10]
  glycan array binding signal (z-score): -0.086
[11]
  glycan array binding signal (z-score): -0.64
[12]
  glycan array binding signal (z-score): 0.224
[13]
  glycan array binding signal (z-score): -0.273
[14]
  glycan array binding signal (z-score): 0.257
[15]
  glycan array binding signal (z-score): -0.793
[16]
  glycan array binding signal (z-score): -0.613
[17]
  glycan array binding signal (z-score): 0.345
[18]
  glycan array binding signal (z-score): -0.551
Gal(b1-4)GlcNAc6P
  glycan array binding signal (z-score): -0.186
Gal(b1-6)Gal
  glycan array binding signal (z-score): -0.187
Gal3S(b1-3)GalNAc
  glycan array binding signal (z-score): -0.791
Gal3S(b1-3)GlcNAc
  glycan array binding signal (z-score): -0.817
[19]
  glycan array binding signal (z-score): -0.067
